# The campaign covered roughly 300,000 compounds. About 3,700 (1.2%) were called active. Inconclusive results, whose numbers are uncertain, are shown with a selection of clear calls. Calls follow the shape of the full dose curve; tested in HEK293 cells. A potency beside an inconclusive call is a rough fit, not a confirmed value.
# Experiment: qHTS for Inhibitors of binding or entry into cells for Lassa Virus; also: nearly all actives have a fitted effect of over 50% in size
# Settings: Lassa virus pseudotype entry inhibition, cell reporter; series mostly up to 37.9 µM
# Potency is read from the fitted curve at half-maximal effect.
row,SMILES,Potency
1,COC(=O)c1cc2nc(-c3ccccc3)cc(C(F)(F)F)n2n1,inactive
2,O=c1c2ccccc2nc(-c2ccccc2)n1-c1ccncc1,"inconclusive: 23.1 µM [activator, single point]"
3,C[N+]1=C(/C=C/Nc2ccccc2)C(C)(C)c2ccccc21,"inconclusive: 20 µM [inhibitor, single point]"
4,O=C(N/N=C1\CC(c2ccccc2)Oc2ccccc21)c1cccnc1 (stereo not drawn),"inconclusive: 12.6 µM [inhibitor, partial curve, poor fit]"
5,Cc1ccc(C)c(SCC(=O)OC/C(O)=C(\C#N)c2nc3ccccc3[nH]2)c1,inactive
6,Cc1cc2nc(N3C(=O)CNC3=S)sc2cc1C,"inconclusive: 11.2 µM [inhibitor, partial curve, poor fit]"
7,Cc1ccc(-c2nn3cnnc3c3ccccc23)cc1C,"inconclusive: 7.08 µM [inhibitor, partial curve, poor fit]"
8,CN(C)c1ccc(C=c2c3ccccc3n3c2cc(-c2ccc(Cl)cc2)[n+]3C)cc1,"inconclusive: 22.4 µM [inhibitor, single point]"
9,COC(=O)c1c(NC(=O)c2ccccc2N(C)S(=O)(=O)c2ccccc2)sc2c1CCCC2,"inconclusive: 7.94 µM [inhibitor, partial curve]"
10,Cc1nc(C)c(-c2ccc(SCC(=O)Nc3cccc(Cl)c3C)nn2)s1,"inconclusive: 1.78 µM [inhibitor, partial curve, poor fit]"
11,O=c1cccccc1NN=C1CCCCCC1,inactive
12,CC(=O)OCCCN(C)CC/C=C1/c2ccccc2CSc2ccccc21,"inconclusive: 7.08 µM [inhibitor, partial curve]"
13,CC(c1ccccc1)n1c(-c2ccccc2F)n[nH]c1=S (stereo not drawn),"inconclusive: 35.5 µM [inhibitor, single point]"
14,O=S(=O)(c1ccc(-c2cnc(C3CC3)o2)cc1)N1CCN(c2ccc(F)cc2)CC1,active: 7.94 µM
15,O=C(c1ccc([N+](=O)[O-])s1)N1CCN(c2cccc(Cl)c2)CC1,"inconclusive: 35.5 µM [inhibitor, single point]"
16,O=C(Nc1ccc(S(=O)(=O)N2CCCCC2)cc1)C1CCCN(C(=O)c2ccc(Cl)cc2)C1 (stereo not drawn),active: 0.291 µM
17,CCn1nc(C)c2c(-c3ccccc3)cc(=O)n(C(C)C(=O)NCCc3ccc(Cl)cc3)c21 (stereo not drawn),"inconclusive: 35.5 µM [inhibitor, single point]"
18,CC(=O)N1CCC2(CC1)C(C#N)=C(N)OC1=C2C(=O)CC(C)(C)C1,inactive
19,Cc1ccc2nc(-c3cccc(NC(=O)c4ccco4)c3)[nH]c2c1,inactive
20,Cc1ccc2[nH]c(=O)c(CN(CCCN3CCOCC3)C(=O)Nc3ccc(Cl)cc3)cc2c1,inactive
21,O=C(CN(Cc1ccccc1)C(=O)CSc1nnc(COc2ccccc2)o1)NC1CCCC1,"inconclusive: 32.6 µM [inhibitor, single point]"
22,CCOc1ccc(NCc2nnc(SCc3ccccc3Cl)n2-c2ccccc2)cc1,"inconclusive: 18.3 µM [inhibitor, single point]"
23,CC1=C(C(=O)Nc2ccc(C)cc2C)C(c2cccc(Cl)c2)n2nc(C(=O)OC(C)C)nc2N1 (stereo not drawn),inactive

# Taken from above.
# Potency, `C[N+]1=C(/C=C/Nc2ccccc2)C(C)(C)c2ccccc21` reads inconclusive: 20 µM [inhibitor, single point]
# Potency, `O=c1cccccc1NN=C1CCCCCC1` reads inactive
# Potency, `COC(=O)c1cc2nc(-c3ccccc3)cc(C(F)(F)F)n2n1` reads inactive
# Potency, `Cc1ccc2[nH]c(=O)c(CN(CCCN3CCOCC3)C(=O)Nc3ccc(Cl)cc3)cc2c1` reads inactive

# (further entries)

row,SMILES,Potency
1,COCCNC(=O)C1(C)C=CC2(CCCCC2)N1C(=O)c1ccccc1 (stereo not drawn),inactive
2,CCCOc1ccc(/C=N/NC(=O)c2nnn(-c3nonc3N)c2-c2cccs2)cc1OC,inactive
3,Cc1ccc(OCC(=O)Nc2ccc(N3CCN(C(=O)c4ccco4)CC3)cc2)c(C)c1,"inconclusive: 35.5 µM [inhibitor, single point]"
4,Cc1ccc(S(=O)(=O)N2CN(Cc3ccco3)c3nc4ccccc4nc32)cc1C,"inconclusive: 12.6 µM [inhibitor, partial curve, poor fit]"
5,O=C(c1ccc2c(c1)N(Cc1cccc(Cl)c1)C(=O)c1ccccc1S2=O)N1CCC(Cc2ccccc2)CC1 (stereo not drawn),"inconclusive: 35.5 µM [inhibitor, single point]"
6,CCCC1O[C@@H]2CC3C4CCC5=CC(=O)C=C[C@]5(C)C4C(OC(C)=O)C[C@]3(C)[C@]2(C(=O)COC(C)=O)O1 (stereo partly drawn),"inconclusive: 29.1 µM [inhibitor, single point]"
7,Cc1c(C(=O)NCc2ccc3c(c2)OCO3)oc2ccc(S(=O)(=O)N3CCC(C)CC3)cc12,"inconclusive: 5.17 µM [inhibitor, partial curve]"
8,COc1cc(OC)cc(C(=O)NCc2nc(-c3ccccc3)no2)c1,"inconclusive: 7.3 µM [inhibitor, partial curve]"
9,CCN1C(=O)/C(=C\c2ccncc2)SC1=Nc1ccc(C)c(C)c1,inactive
10,COc1ccccc1N1CCN(C(=O)C2CCN(S(=O)(=O)c3cn(C)cn3)CC2)CC1,inactive
11,COc1ccc(N2C(=O)C3CC(C)=C(C)CC3C2=O)c(OC)c1 (stereo not drawn),inactive
12,COc1ccc(N2Cc3ccccc3C2=O)cc1,"inconclusive: 0.708 µM [activator, single point]"
13,CCOc1ccc(/C=C2\SC(=S)N(CCC(=O)Nc3cccc(C(=O)O)c3)C2=O)cc1,"inconclusive: 17.8 µM [activator, single point]"
14,COc1ccc(/C=N/NC(=O)c2cccc([N+](=O)[O-])c2)cc1OS(=O)(=O)c1ccc(C)cc1,inactive
15,CNC(=S)N/N=C/c1ccc(OCc2ccccc2)c(Br)c1,"inconclusive: 29.1 µM [inhibitor, single point]"
16,O=[N+]([O-])c1ccc(-c2csc(N3CCCCCC3)n2)cc1,"inconclusive: 11.2 µM [inhibitor, partial curve, poor fit]"
17,CC(C)C12CN3CC(C(C)C)(CN(C1)C3c1ccccn1)C2=O (stereo not drawn),"inconclusive: 2.82 µM [activator, single point]"
18,COc1ccc(NC(=O)c2c(F)cccc2F)cc1S(=O)(=O)Nc1ccc(Br)cc1,"inconclusive: 29.1 µM [inhibitor, single point]"
19,CS(=O)(=O)c1ncc(Cl)c(C(=O)Nc2ccc3ccccc3c2)n1,"inconclusive: 4.47 µM [inhibitor, full curve, poor fit]"
20,Cc1nn2c(COc3ccc(NC(=O)C(C)C)cc3)nnc2c2ccccc12,"inconclusive: 3.55 µM [inhibitor, single point]"
21,CC(=O)Nc1ccc(S(=O)(=O)Nc2nnc(CC(C)(C)C)s2)cc1,inactive
22,C/C(=N\NC(=O)c1cc(-c2cccs2)nc2ccccc12)c1ccccn1,active: 6.51 µM
23,CCCN(C(=O)Cn1nc(C)c([N+](=O)[O-])c1C)c1c(N)n(Cc2ccccc2)c(=O)[nH]c1=O,"inconclusive: 1.26 µM [inhibitor, single point]"

row,SMILES,Potency
1,CCOc1ccc(CN2CCN(Cc3cc4c(cc3Cl)OCO4)CC2CCO)cc1 (stereo not drawn),"inconclusive: 7.08 µM [inhibitor, partial curve, poor fit]"
2,COc1ccc(OC)c(-n2c(CNC3CCN(Cc4ccccc4)CC3)nc3ccccc3c2=O)c1,inactive
3,N#Cc1ccc(/C=C/C(=O)c2cccnc2)cc1,"inconclusive: 29.1 µM [inhibitor, single point]"
4,CCCCN(CCCC)S(=O)(=O)c1ccc(NS(=O)(=O)c2ccc(NC(C)=O)cc2)cc1,inactive
5,C=CCN1CCN(C(=O)c2cc3c(s2)CCC(CC)C3)CC1 (stereo not drawn),inactive
6,COc1cc(NC(=O)COc2c(C)cc(C)cc2[N+](=O)[O-])c(OC)cc1Cl,inactive
7,COc1cccc(N2CCN(C(=O)c3cnn(-c4ccccc4Cl)c3C3CCN(C(=O)OC(C)(C)C)CC3)CC2)c1,"inconclusive: 1.26 µM [inhibitor, full curve, poor fit]"
8,CCCCc1ccc(NS(=O)(=O)c2cc3c4c(c2)CC(=O)N4CCC3)cc1,inactive
9,CCOCCCNC(=O)c1ccc2c(=O)n(CCc3ccccc3)c(=O)[nH]c2c1,"inconclusive: 4.47 µM [activator, full curve, poor fit]"
10,O=C(CCCOc1ccccc1)Nc1ccccc1C(F)(F)F,inactive
11,FC(F)(F)c1cnc(N2CCCN(C(=S)Nc3ccccc3)CC2)c(Cl)c1,"inconclusive: 35.5 µM [inhibitor, single point]"
12,CC(=O)N1CCC(N(C(=O)Nc2ccc(C)c(C)c2)C2CCCC2)CC1,inactive
13,O=C(Nc1ccc(F)c(F)c1)c1cnc(-c2ccccc2)nc1-c1ccccc1,"inconclusive: 18.3 µM [inhibitor, single point]"
14,N/C(=N\O)c1ccc(NC(=O)c2ccc(Br)o2)cc1,inactive
15,COc1ccc(Br)c(-c2nnc(CS(=O)(=O)c3ccccc3)o2)c1,"inconclusive: 14.1 µM [inhibitor, single point]"
16,Cc1ccc(C)c(NC(=S)NCCc2c[nH]c3ccccc23)c1,"inconclusive: 20 µM [inhibitor, partial curve, poor fit]"
17,CC/C(=N\NC(=O)c1ccc2c(c1)OCO2)C12CC3CC(CC(C3)C1)C2,"inconclusive: 11.2 µM [activator, partial curve, poor fit]"
18,CCOC(=O)c1ccc2c(c1)nc(COc1ccc3ccccc3c1)n2CC,"inconclusive: 25.9 µM [inhibitor, single point]"
19,CCC(=O)N(Cc1cc(=O)[nH]c2ccccc12)c1ccccc1,inactive
20,O=C(O)CCC(=O)NNC(=O)CCCOc1ccc(Cl)cc1Cl,inactive
21,Cc1ccc(N2CCN(C(=O)c3cccn4c(=O)c5ccc(Cl)cc5nc34)CC2C)cc1 (stereo not drawn),"inconclusive: 8.91 µM [activator, partial curve, poor fit]"
22,Cc1ccc(S(=O)(=O)C(CNC(=O)C(=O)NCCc2ccc(Cl)cc2)c2ccco2)cc1 (stereo not drawn),inactive

# — PubChem BioAssay AID540256 (National Center for Advancing Translational Sciences (NCATS), 2011)
